Like-named read-outs stand apart in the source and are kept apart here.
Tested on: microbial inhibition test (Premi®Test)
Conditions: read after 3-4 hours
[1] = Bovine urine without drug residues, 1 mg/100 μl
[2] = Pig urine without drug residues, 1 mg/100 μl

SMILES | Amount of false positive results (%) [1] | Amount of false positive results (%) (Bovine urine without drug residues, 2 mg/100 μl) | Amount of false positive results (%) [2] | Amount of false positive results (%) (Pig urine without drug residues, 2 mg/100 μl)
CC(=O)[O-].CC(=O)[O-].[Ca+2] [Ca(CH3COO)2, Calcium Acetate] | 20% | 4% | 0% | 12%
[Ca+2].[Cl-].[Cl-] [CaCl2, Calcium Chloride] | 12% | – | 11% | –
